Laboratory results as given in paper PMC11201311.

Sequences of proteins named here, by UniProt entry; tags and fusion partners are left off.
UniProt P61081: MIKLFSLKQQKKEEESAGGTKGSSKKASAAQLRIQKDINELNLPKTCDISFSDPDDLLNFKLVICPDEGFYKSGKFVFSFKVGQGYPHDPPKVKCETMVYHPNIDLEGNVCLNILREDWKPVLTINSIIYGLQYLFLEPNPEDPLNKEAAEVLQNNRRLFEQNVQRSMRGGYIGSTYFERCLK
UniProt Q14258: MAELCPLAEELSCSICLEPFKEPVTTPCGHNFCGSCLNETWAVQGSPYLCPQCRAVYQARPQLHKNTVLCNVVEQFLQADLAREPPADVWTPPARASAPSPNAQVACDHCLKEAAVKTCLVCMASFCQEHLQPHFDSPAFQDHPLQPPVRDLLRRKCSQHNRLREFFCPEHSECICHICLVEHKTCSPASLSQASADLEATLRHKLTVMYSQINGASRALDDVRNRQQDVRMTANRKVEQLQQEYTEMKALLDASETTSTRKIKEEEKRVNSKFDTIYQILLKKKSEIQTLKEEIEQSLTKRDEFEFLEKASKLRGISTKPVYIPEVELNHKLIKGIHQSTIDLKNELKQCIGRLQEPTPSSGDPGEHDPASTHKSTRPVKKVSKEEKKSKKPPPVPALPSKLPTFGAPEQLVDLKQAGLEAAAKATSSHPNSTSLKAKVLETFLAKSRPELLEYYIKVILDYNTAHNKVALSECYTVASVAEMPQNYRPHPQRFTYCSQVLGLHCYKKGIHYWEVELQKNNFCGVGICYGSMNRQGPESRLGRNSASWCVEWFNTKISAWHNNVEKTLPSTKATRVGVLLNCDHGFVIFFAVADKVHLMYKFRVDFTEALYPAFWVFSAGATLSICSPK

Target: Flag-UBC12 (human) (UniProt P61081)
Assay: affinity purification with mass spectrometry; BT-549 cells transfected with Flag-UBC12 or Flag-TFEB for 48 h, MG132 for 3 h; lysates immunoprecipitated with anti-Flag; silver staining and mass spectrum

binding: binds
Substance: E3 ubiquitin ligase tripartite motif containing 25 (TRIM25), endogenous (from UniProt Q14258 1-630) (enzyme)

These are yes or no findings as the source states them, for the method shown. In cells and extracts the contact can be indirect. A yes stands for co-enrichment or nearness to the bait. Other partners may have been found.
